Library screen at single concentrations

Amino acid sequences for entries named in this document (tags omitted). Residues count along the entry.
UniProt P9WPC5, whole entry: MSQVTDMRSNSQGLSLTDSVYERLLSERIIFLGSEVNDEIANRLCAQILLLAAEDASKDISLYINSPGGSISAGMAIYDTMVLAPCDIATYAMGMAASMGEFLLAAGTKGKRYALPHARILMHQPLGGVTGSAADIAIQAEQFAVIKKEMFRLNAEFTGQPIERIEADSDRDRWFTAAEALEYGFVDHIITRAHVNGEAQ
UniProt P9WPC3, whole entry partner: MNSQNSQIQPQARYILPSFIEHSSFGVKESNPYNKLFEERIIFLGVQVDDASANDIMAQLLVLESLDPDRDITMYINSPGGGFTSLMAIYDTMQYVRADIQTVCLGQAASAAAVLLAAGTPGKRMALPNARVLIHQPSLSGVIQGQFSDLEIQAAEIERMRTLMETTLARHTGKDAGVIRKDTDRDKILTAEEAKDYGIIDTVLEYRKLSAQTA
UniProt Q4DA54, 1-478: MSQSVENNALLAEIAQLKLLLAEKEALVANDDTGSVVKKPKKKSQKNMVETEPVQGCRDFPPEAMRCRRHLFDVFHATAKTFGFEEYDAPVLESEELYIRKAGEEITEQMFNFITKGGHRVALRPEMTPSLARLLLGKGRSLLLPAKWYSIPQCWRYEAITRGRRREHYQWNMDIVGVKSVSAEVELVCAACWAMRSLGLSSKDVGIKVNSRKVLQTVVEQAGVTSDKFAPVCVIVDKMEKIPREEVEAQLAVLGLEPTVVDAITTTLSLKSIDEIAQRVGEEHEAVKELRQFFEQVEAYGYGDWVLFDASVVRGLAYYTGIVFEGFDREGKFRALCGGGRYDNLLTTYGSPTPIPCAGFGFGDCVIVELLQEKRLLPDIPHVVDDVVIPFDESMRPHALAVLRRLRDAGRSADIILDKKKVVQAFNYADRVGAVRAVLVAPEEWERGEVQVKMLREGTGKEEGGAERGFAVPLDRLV
UniProt Q8IDJ8, 1-583: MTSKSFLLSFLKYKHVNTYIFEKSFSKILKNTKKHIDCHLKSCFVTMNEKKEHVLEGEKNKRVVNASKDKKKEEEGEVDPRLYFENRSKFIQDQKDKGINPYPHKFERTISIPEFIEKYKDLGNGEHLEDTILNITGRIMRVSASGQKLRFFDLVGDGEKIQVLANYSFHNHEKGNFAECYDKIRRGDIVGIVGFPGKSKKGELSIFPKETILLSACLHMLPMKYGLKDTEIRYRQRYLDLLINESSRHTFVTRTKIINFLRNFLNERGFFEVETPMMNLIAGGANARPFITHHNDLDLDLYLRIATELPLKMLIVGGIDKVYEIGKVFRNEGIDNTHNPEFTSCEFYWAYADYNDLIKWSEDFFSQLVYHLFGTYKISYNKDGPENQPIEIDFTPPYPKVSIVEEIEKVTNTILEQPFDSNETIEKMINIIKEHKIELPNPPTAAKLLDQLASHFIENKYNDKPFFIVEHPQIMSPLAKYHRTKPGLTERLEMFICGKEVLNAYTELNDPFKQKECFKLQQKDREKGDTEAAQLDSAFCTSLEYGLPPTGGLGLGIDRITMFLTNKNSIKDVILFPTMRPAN
UniProt P9WNZ1, whole entry: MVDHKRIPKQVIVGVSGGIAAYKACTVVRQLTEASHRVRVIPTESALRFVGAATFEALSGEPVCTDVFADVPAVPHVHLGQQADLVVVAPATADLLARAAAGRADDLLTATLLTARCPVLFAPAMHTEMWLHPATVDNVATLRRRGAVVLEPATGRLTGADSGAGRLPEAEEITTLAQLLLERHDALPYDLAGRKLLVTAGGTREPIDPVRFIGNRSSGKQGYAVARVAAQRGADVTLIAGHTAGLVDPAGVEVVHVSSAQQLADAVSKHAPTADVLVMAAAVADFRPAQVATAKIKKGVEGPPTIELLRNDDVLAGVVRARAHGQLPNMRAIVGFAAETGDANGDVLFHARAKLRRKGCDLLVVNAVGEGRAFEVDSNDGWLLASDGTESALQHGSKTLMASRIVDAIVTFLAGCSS
UniProt I6X8D2, whole entry: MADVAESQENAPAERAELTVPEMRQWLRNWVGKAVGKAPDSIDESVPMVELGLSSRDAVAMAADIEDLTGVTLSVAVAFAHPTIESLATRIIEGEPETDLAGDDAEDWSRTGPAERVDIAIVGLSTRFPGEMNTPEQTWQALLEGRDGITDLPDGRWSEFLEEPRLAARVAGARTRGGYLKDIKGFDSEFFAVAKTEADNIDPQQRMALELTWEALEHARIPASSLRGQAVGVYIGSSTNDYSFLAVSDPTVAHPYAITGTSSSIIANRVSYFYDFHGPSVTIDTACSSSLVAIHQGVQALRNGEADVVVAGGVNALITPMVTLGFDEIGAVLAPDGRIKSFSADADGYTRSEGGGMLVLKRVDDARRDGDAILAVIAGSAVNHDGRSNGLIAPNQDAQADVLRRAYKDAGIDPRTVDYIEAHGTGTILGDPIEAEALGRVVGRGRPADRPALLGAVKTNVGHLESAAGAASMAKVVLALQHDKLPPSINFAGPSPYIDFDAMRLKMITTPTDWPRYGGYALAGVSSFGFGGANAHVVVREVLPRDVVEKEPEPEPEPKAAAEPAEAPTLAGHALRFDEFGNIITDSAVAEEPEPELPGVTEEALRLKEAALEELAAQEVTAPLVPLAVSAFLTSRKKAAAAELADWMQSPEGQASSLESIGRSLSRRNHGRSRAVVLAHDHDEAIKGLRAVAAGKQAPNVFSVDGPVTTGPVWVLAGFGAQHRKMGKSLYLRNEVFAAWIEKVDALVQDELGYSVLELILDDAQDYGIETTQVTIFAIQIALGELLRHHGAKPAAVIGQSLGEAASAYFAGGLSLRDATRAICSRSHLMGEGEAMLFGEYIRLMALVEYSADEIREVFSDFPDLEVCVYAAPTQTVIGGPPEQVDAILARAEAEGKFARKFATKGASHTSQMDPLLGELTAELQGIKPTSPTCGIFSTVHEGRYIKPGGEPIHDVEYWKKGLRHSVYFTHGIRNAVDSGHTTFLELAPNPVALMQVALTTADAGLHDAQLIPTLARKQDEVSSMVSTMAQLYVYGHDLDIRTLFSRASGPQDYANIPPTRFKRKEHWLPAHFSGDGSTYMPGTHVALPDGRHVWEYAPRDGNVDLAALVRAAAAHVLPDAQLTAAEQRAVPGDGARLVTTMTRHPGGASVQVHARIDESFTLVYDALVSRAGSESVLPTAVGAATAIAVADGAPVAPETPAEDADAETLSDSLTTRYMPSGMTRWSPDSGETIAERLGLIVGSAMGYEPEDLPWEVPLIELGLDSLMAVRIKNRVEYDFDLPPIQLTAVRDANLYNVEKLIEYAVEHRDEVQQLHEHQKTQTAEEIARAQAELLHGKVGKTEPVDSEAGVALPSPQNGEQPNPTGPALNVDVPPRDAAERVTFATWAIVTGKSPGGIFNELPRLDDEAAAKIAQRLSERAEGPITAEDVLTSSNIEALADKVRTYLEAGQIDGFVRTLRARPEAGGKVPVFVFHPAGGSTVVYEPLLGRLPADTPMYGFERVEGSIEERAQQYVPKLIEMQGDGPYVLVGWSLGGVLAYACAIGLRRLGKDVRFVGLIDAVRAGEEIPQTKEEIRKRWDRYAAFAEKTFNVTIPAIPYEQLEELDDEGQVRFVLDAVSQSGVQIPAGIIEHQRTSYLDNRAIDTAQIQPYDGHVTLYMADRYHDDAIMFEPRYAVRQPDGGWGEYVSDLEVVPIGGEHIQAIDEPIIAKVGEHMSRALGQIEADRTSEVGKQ

The values are deposited in ChEMBL (CHEMBL3988442, “University of Dundee, Small-Polar-MMV Screening Library” (2021)).

A: 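ClpP1P2, Mycobacterium tuberculosis (UniProt P9WPC5 and UniProt P9WPC3). Protease assay of ClpP1P2, read by the AMC dye that it sets free. Tested at 50 µM. Direction is inferred from only a few compounds that gave an IC50; most scored high, so higher reads as stronger inhibition. Most other retested compounds had strongly negative values. Of about 69,000 compounds tested this way, about 10 (0.015%) reached 50% or more in at least one test.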
B: 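Histidine-tRNA ligase, Trypanosoma cruzi CL Brener (UniProt Q4DA54). Enzyme assay of histidyl-tRNA synthetase; the read-out is not stated. Concentration: 30 µM. Direction is inferred from retests: higher values go with stronger inhibition. About 69,000 compounds were tested under these conditions; 0.045% (about 31) showed 50% or more at least once.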
C: 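Lysine-tRNA ligase, Plasmodium falciparum 3D7 (UniProt Q8IDJ8). Enzyme assay of the cytosolic lysyl-tRNA synthetase in 384-well plates, read by luminescence. Tested at 30 µM. Direction is inferred from only a few compounds that gave an IC50; most scored high, so higher reads as stronger inhibition. Of about 69,000 compounds tested this way, about 49 (0.071%) reached 50% or more in at least one test.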
D: 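Coenzyme A biosynthesis protein CoaBC, Mycobacterium tuberculosis (UniProt P9WNZ1). Enzyme assay of CoaBC with a phosphate dye (Biomol Green) read at 650 nm. Tested at 30 µM. Higher reads as stronger inhibition, judged from the few compounds that gave an IC50. Most strong results did not repeat in a second test. Size under these conditions: about 67,000 compounds, about 40 of them at 50% or above in at least one test.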
E: 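Cell assay of Leishmania donovani living inside macrophages; the read-out is not stated. Tested at 30 µM. The record gives no direction; compounds that gave an IC50 in retests scored well above the rest, so higher reads as stronger inhibition. About 69,000 compounds were tested under these conditions; 1.5% (about 1,000) showed 50% or more at least once.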
F: 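Polyketide synthase Pks13, Mycobacterium tuberculosis (UniProt I6X8D2). Enzyme assay of the thioesterase domain of polyketide synthase 13; the read-out is not stated. Tested at 30 µM. Higher reads as stronger inhibition (inferred from which compounds were picked for retests). Size under these conditions: about 67,000 compounds, about 300 of them at 50% or above in at least one test.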

The filed quantity is “Percent Effect” (%). The controls that fix the scale are not given in the record; negative values are as filed. The compounds are a random part of those screened. Two or more numbers in one place are separate tests of the same structure; such repeats can differ widely. A dash means the value is not listed here; it may have been measured.

SMILES,A,B,C,D,E,F
Cc1noc(C2CCCN(C(=O)c3cccc(Cl)c3)C2)n1 (stereo not shown),1.944,9.091,-0.1358,-2.355,-74.95,-3.386
Fc1ccc(C2(NCc3ccccc3)CCOCC2)cc1,-4.038,1.087,2.062,3.427,9.252,-18.22
O=C(Cn1ccc2sccc2c1=O)NCc1ccc2c(c1)OCO2,-5.517,-15.22,0.1189,-0.6337,-11.22,-8.984
O=C(NS(=O)(=O)c1ccc(Cl)cc1F)c1cccc2c1OCCO2,-2.709,3.067,2.281,6.786,-26.6,-5.24
CCc1ncc(CN2CCN(CCOC)CC2)cn1,-6.438,4.478,1.959,-0.2433,17.37 and -0.6645,6.686
CN(C)CC(=O)N1CC2(CCN(C(=O)Nc3ccccc3)C2)C1.O=C(O)C(F)(F)F,-,-,-,-,27.48,-
Cc1nn(C)c2cn(C(C)C(=O)NCc3cccc(F)c3)nc12 (stereo not shown),4.566,4.348,1.954,-10.39,-38.24,20.26
C/C(=C\c1ccccc1)CN1CCCC(c2nnc3n2CCNCC3)C1 (stereo not shown),-16,4.215,0.03504,-2.67,-,-11.62
Cc1cnn(CC2CCCN2C(=O)Cc2c(C)nc(C)[nH]c2=O)c1 (stereo not shown),-0.1649,1.127,-0.8544,4.453,-13.97,6.004
Cc1nc(C)n(CC2CCCN2Cc2nc3ccccc3o2)n1 (stereo not shown),-19.67,0.5634,1.097,-2.926,21.88,-2.18
Cc1ccc(S(=O)(=O)N2CCC(S(C)(=O)=O)CC2)cc1C,2.175,3.518,-5.129,-4.212,-20.76,-0.6998
NC(=O)C1CCN(C(=O)NCCOc2ccc3c(c2)OCO3)C1 (stereo not shown),-12.99,0,-0.5533,7.168,25.54,6.474
CCc1nnc2n1CCN(Cc1csc(NC(C)=O)n1)C2,-27.46,1.734,-0.5335,4.47,-19.25,-7.565
c1ccc(CCc2n[nH]c(CCN3CCCCC3)n2)cc1,-0.2889,5.128,5.319,-0.6889,-9.016,-15.83
O=C(CSC1CCc2ccccc2NC1=O)NCCO (stereo not shown),11.18,-0.8264,4.379,1.316,9.667,-17.26
CC1c2ncc(Cn3cccn3)n2CCN1Cc1cccnc1 (stereo not shown),-14.84,0,7.316,-5.185,-,-13.65
O=C(O)C(F)(F)F.[H][C@@]12COC[C@]1(COCc1cccnc1)CN(C(=O)Cc1ccsc1)C2,-,-,-,-,0.1412 and -11.44,-
Cn1ccc(C(=O)N2CCC3(CCC(=O)N(C4CCCC4)C3)CC2)n1,12.03,1.734,0.2063,-3.719,-35.4,16.7
CCOCCN1CCN(CC(O)c2ccc(OC)cc2)CC1 (stereo not shown),7.057,2.155,1.497,-0.3802,17.25,-14.06
CC(C)c1nc(CN2CCc3onc(-c4cccc(F)c4)c3C2)no1,-19.98,18.4,5.186,4.113,18.03,91.23
Cc1cnn(C2CCCN(C(=O)c3ccc4c(c3)CCC4)C2)c1 (stereo not shown),-3.326,4.023,0.5591,5.032,12.83,-6.98
CNC(=O)CCc1cc(C)nc(C2CCN(C(=O)CN(C)C)CC2)c1,-12.1,4.981,1.224,0.2392,37.9,7.19
[H][C@@]12CN(Cc3ccc(C(F)(F)F)cc3)C[C@]1([H])OCC(=O)N2CC(N)=O,-,-,-,-,12.22,-
COc1ncc(C2(O)CCN(Cc3cc(F)ccc3F)CC2)c(OC)n1,-13.89,7.692,4.144,2.427,-,2.161
Cc1ccsc1-c1nc(CN(C)Cc2noc(C(C)C)n2)c(C)o1,2.365,1.117,3.96,5.141,5.095,-22.7
FC(F)(F)COCCN1CCc2cncnc2C1,-26.77,34.48,18.01,1.599,22.16,5.303
CN1CCN(C(=O)[C@H]2C[C@H]3[C@H](CCN3Cc3cccs3)O2)CC1,11.27,2.793,3.01,1.333,-,-28.05
COc1cccn(CC(=O)N(C)CCSC)c1=O,-15.34,1.961,-3.509,-0.4878,33.27,-7.093
CN(Cc1ccoc1)C(=O)CN1C(=O)OC(C)(C)C1=O,-13.98,4.348,3.886,1.869,-1.651,-28.53
O=C(NCCOC1CCCCC1)c1ccc(-c2ccco2)[nH]c1=O,-143,-12.5,-4.34,2.678,-9.27,4.591
CNC(=O)c1cc2c(nc1N(C)C)CCN(c1ncccn1)CC2.O=C(O)C(F)(F)F,-,-,-,-,16.8,-
CCc1nnc2n1CCN(C(=O)C1CCC(n3cccc3)CC1)C2 (stereo not shown),-5.253,9.392,8.336,6.796,28.51,-20.82
Cc1cnn(CC2CCCCN2C(=O)Cc2ccc(C#N)cc2)c1 (stereo not shown),-16.39,2.254,2.106,-7.252,18.67,-32.05
COCC1COCCC12CCN(C(=O)CC1=CCCCC1)CC2 (stereo not shown),-0.5929,7.595,5.485,-,11.86,-7.107

2 of the entries, repeated:

SMILES	A	B	C	D	E	F
O=C(O)C(F)(F)F.[H][C@@]12COC[C@]1(COCc1cccnc1)CN(C(=O)Cc1ccsc1)C2	-	-	-	-	0.1412 and -11.44	-
CN1CCN(C(=O)[C@H]2C[C@H]3[C@H](CCN3Cc3cccs3)O2)CC1	11.27	2.793	3.01	1.333	-	-28.05